# Laboratory results reported in PubChem BioAssay AID1347075 (National Center for Advancing Translational Sciences (NCATS), 2019).
# In all, about 400,000 compounds went through this assay and about 5,500 (1.4%) were called active. Inconclusive results, whose numbers are uncertain, are shown with a selection of clear calls. Calls come from the whole dose curve; as a rule, active = well fitted cell-killing curve with a large enough effect; inconclusive = small, poorly fitted or top-dose-only effect, or effect the other way; inactive = flat fitted curve, though single readings scatter. A potency beside an inconclusive call is a rough fit, not a confirmed value.
# Experiment: qHTS assay for MDR1-selective chemotherapeutics: Primary screen using the parental adenocarcinoma cell KB-3-1; note: nearly all actives have a fitted effect of over 60% in size
# Details: KB-3-1 viability, CellTiter-Glo ATP luminescence, 72 h; activity change, negative = cytotoxic: at 46.1 µM (top of the series)
# How it was run: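 KB-3-1 cells, DMEM (no phenol red) + 10% FBS; compound by pin transfer, 72 h, 37 °C. Readout: CellTiter-Glo luminescence after 10 min. Data normalized, curve-fitted.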
# % is set by controls: 0 for no effect and ±100 for the full control effect; potency is the fitted concentration of half-maximal effect.
SMILES,"activity change, negative = cytotoxic",Potency
Cc1onc(-c2ccccc2)c1C(=O)NC(C)CCc1ccccc1 (configuration not stated),inactive: -1.74%,
CCCS(=O)(=O)c1c(S(=O)(=O)CCC)c2cc(C(C)(C)C)ccn2c1C(=O)c1ccccc1,inactive: -16.9%,
COc1ccc(/C=C/c2ccc3ccccc3[n+]2C)c(OC)c1OC,,"inconclusive: 1.84 µM [cytotoxic, partial curve, poor fit]"
COc1ccccc1NC(=O)Nc1nc(C(N)Cc2ccc(C(F)(F)F)cc2)cs1 (configuration not stated),,"inconclusive: 29.1 µM [cytotoxic, single point]"
COC(=O)[C@H](C)NC(=O)Nc1ccc(Oc2ccccc2)cc1,,"inconclusive: 0.0259 µM [cytotoxic, full curve]"
CCOC(=O)N1CCC(NC(=O)Cc2ccccc2)CC1,inactive: 2.87%,
COc1cc2c3nnc(-c4ccc(F)cc4)c-3cn(Cc3ccc(F)cc3)c2cc1OC,,"inconclusive: 23.1 µM [cytotoxic, single point]"
O=C(CCSc1ccc(F)cc1)Nc1ccc(-n2cnnn2)cc1,inactive: -14.6%,
O=C1C=C(c2c(O)ccc3ccccc23)c2ccccc2C1=O,,"inconclusive: 29.1 µM [cytotoxic, single point]"
Cc1cccc(NC2=NC(C)(C)N=C(N)N2)c1,,active: 1.64 µM
CCN(CC)C(=O)c1sc2c(c1C)c(=O)n(CCc1ccccc1)c(=O)n2Cc1cc(C)ccc1C,inactive: -0.654%,
Cc1cc(Cl)c(S(=O)(=O)N2CCN(c3ccccn3)CC2)cc1OCC(N)=O,inactive: 16.1%,
O=C(Nc1nnc(SCC(=O)N2CCCCC2)s1)c1cccs1,inactive: -3.18%,
CC(C)Cn1c(-c2cccs2)nc2nc3ccccc3nc21,,"inconclusive: 6.51 µM [cytotoxic, partial curve]"
O=C(CSCCc1ccccn1)Nc1cccnc1,inactive: -0.8%,
O=C(NCCC1=CCCCC1)c1ccc(Cl)c(S(=O)(=O)Nc2ccccc2)c1,inactive: 1.98%,
Cc1cc(C)n2nc(SCC(=O)N(Cc3ccccc3)C3CCS(=O)(=O)C3)nc2n1 (configuration not stated),,"inconclusive: 18.4 µM [rising, single point]"
Cc1cc(C(=O)N/N=C/c2ccc(Cl)c([N+](=O)[O-])c2)c(C)n1-c1ccc(F)cc1,,active: 5.8 µM
COc1cc(NC(=O)c2ccc3snnc3c2)cc(OC)c1,inconclusive: 48.9%,
NC(=S)NN=Cc1nccc2ccccc12,,"inconclusive: 4.11 µM [cytotoxic, full curve]"
COc1cc(C2c3cc4c(cc3OC(NCCc3ccccc3)C2C)OCO4)cc(OC)c1OC (configuration not stated),,active: 4.11 µM
CC(=O)Nc1ccc(/C=C2\C=C(C(O)c3ccc(NC(C)=O)cc3)c3ccccc32)cc1 (configuration not stated),inactive: -22%,
